Test results from patent publication US20060198859A1, “Compositions with a depot effect for controlling microorganisms” (Goldschmidt GmbH, priority 2004, published 2006).

System: enzymes expressed by the skin microbes
Assay: Cleavability of polyol esters by skin microbes (p-nitrophenol, UV absorbance)
Format: biochemical
Conditions: underarm swab, acetate buffer pH 5.6

CCCCCCCCCC(=O)OCC(O)CCOc1ccc([N+](=O)[O-])cc1 (stereo not shown) [2-hydroxy-4-p-nitrophenoxybutyl decanoate]
cleavage of the ester by the enzymes expressed by the skin microbes: cleaved in 1.5 h
